Results published in patent US8415156B2, “Recombinant laminin-521” (Biolamina AB, priority 2010, dated 2013).
At least one structure is not confirmed: it was looked up by name or label, or the drawing left a doubt.

Test system: Akt and MEK1
Assay: Western blot of pathway inhibitor treated cells
Assay type: cell-based, human
Settings: cells collected one hour after plating on LN-521, vs DMSO control
From the text: InSolutionTM LY 294002 (a specific […]), InSolutionTM Wortmannin (a specific PI3K inhibitor), and InSolutionTM 98059 (a specific MEK1/Erk inhibitor) were purchased from Calbiochem. Antibodies to phospho-Akt (#4060), total-Akt (#9272), phospho-Erk (#9101), and total-Erk (#9102) were obtained from Cell Signaling Technology. PathScan Phospho-Akt1 sandwich ELISA kit (#7160), PathScan total Akt1 sandwich ELISA kit (#7170), PathScan Phospho-Akt2 sandwich ELISA kit (#7048), and PathScan total Akt2 sandwich ELISA kit (#7046) were also purchased from Cell Signaling Technology. Antibodies to Calnexin (#ab10286) were obtained from Abcam. Function blocking antibodies to various integrin subunits, mouse isotype antibodies, and α-dystroglycan were purchased from Millipore. Since function blocking antibodies to αV (MAB1980) and α6 (MAB1378) were presented in a solution with sodium azide, before the inhibition of survival experiment all the antibodies to alpha integrin subunits were dialyzed thrice against O3 medium for 2 hours each time. Antibodies to Lutheran receptor and α-fetoprotein, as well as rat isotype control antibodies were obtained from R&D Systems. Antibodies to Oct4, Nanog, SSEA-4, smooth muscle actin and MAP-2 were purchased from Millipore. […] For the densitometry analysis the films were scanned at 2,400 dpi and analyzed by the […]5500 program (1D-Multi Line densitometry mode). […]

O=c1cc(N2CCOCC2)oc2c(-c3ccccc3)cccc12 [LY 294002]
efficacy of inhibitor treatment by western blot: confirmed
